Experimental findings from the supplement of paper PMC11264405 are described below.

What all share (test): minimum inhibitory concentration
Compound in one assay: CC(=O)NC[C@H]1CN(c2ccc(N3CCOCC3)c(F)c2)C(=O)O1 [linezolid]
Compound in another assay: CCC[C@@H]1C[C@@H](C(=O)N[C@@H]([C@H]2O[C@H](SC)[C@H](O)[C@@H](O)[C@H]2O)[C@H](C)Cl)N(C)C1 [clindamycin]
Compound in a further assay: CCc1c(Cl)c(O)c(Cl)c(O)c1C(=O)O[C@H]1[C@H](O)[C@H](OC)[C@H](OC/C2=C\C=C\C[C@H](O)/C(C)=C/[C@H](CC)[C@@H](O[C@@H]3OC(C)(C)[C@@H](OC(=O)C(C)C)[C@H](O)[C@@H]3O)/C(C)=C/C(C)=C/C[C@@H]([C@@H](C)O)OC2=O)O[C@@H]1C [fidaxomicin]
Compound in the next assay: CN(C)c1cc(NC(=O)CNC(C)(C)C)c(O)c2c1C[C@H]1C[C@H]3[C@H](N(C)C)C(O)=C(C(N)=O)C(=O)[C@@]3(O)C(O)=C1C2=O [tigecycline]
Compound in another assay: CN[C@H](CC(C)C)C(=O)N[C@H]1C(=O)N[C@@H](CC(N)=O)C(=O)N[C@H]2C(=O)N[C@H]3C(=O)N[C@H](C(=O)N[C@H](C(=O)O)c4cc(O)cc(O)c4-c4cc3ccc4O)[C@H](O)c3ccc(c(Cl)c3)Oc3cc2cc(c3O[C@@H]2O[C@H](CO)[C@@H](O)[C@H](O)[C@H]2O[C@H]2C[C@](C)(N)[C@H](O)[C@H](C)O2)Oc2ccc(cc2Cl)[C@H]1O [vancomycin]
Compound in another assay: CO[C@H]1/C=C/O[C@@]2(C)Oc3c(C)c(O)c4c(O)c(c(/C=N/N5CCN(C)CC5)c(O)c4c3C2=O)NC(=O)/C(C)=C\C=C\[C@H](C)[C@H](O)[C@@H](C)[C@@H](O)[C@@H](C)[C@H](OC(C)=O)[C@@H]1C [rifampicin]
Compound in the next assay: C[C@@H](O)[C@H]1C(=O)N2C(C(=O)O)=C(SCCNC=N)C[C@H]12 [imipenem]
Compound in another assay: C[C@@H](O)[C@H]1C(=O)N2C(C(=O)O)=C(S[C@@H]3CN[C@H](C(=O)N(C)C)C3)[C@H](C)[C@H]12 [meropenem]
Compound in the next assay: Cc1ncc([N+](=O)[O-])n1CCO [metronidazole]

Consider “Clostridioides difficile PCR ribotype 015 isolate #87 (European region: North, country: UK, isolate source: Human, ribotype: 015)”, for which the minimum inhibitory concentration with linezolid was 2 µg/mL; with clindamycin it was 16 µg/mL; in the assay with fidaxomicin, 0.008 µg/mL; with tigecycline, 0.06 µg/mL; in the assay with vancomycin, 1 µg/mL; with rifampicin, less than 0.001 µg/mL. Also, the minimum inhibitory concentration is 2 µg/mL with imipenem, 2 µg/mL with meropenem and less than 0.125 µg/mL in the assay with metronidazole.

For the test system “Clostridioides difficile PCR ribotype 015 isolate #304 (European region: East, country: Slovakia, isolate source: Animal, ribotype: 015)”, the minimum inhibitory concentration was 1 µg/mL with linezolid; 0.25 µg/mL in the assay with clindamycin; 0.06 µg/mL with fidaxomicin; less than 0.03 µg/mL in the assay with tigecycline; 0.5 µg/mL in the assay with vancomycin; less than 0.001 µg/mL with rifampicin. The results for the minimum inhibitory concentration in the assay with imipenem, with meropenem and with metronidazole were 2 µg/mL, 4 µg/mL and less than 0.125 µg/mL, respectively.

Take “Clostridioides difficile PCR ribotype 015 isolate #305 (European region: East, country: Slovakia, isolate source: Animal, ribotype: 015)”: the minimum inhibitory concentration is 2 µg/mL with linezolid; 8 µg/mL with clindamycin; 0.015 µg/mL with fidaxomicin; less than 0.03 µg/mL with tigecycline; 0.5 µg/mL with vancomycin; less than 0.001 µg/mL with rifampicin. Also, the minimum inhibitory concentration with imipenem is 2 µg/mL; in the assay with meropenem, 4 µg/mL; in the assay with metronidazole it was less than 0.125 µg/mL.

As to “Clostridioides difficile PCR ribotype 015 isolate #306 (European region: West, country: Netherlands, isolate source: Animal, ribotype: 015)”, the minimum inhibitory concentration in the assay with linezolid is 2 µg/mL; in the assay with clindamycin it was 8 µg/mL; with fidaxomicin it was 0.015 µg/mL; with tigecycline, less than 0.03 µg/mL; with vancomycin, 1 µg/mL; in the assay with rifampicin it was less than 0.001 µg/mL. Further, the minimum inhibitory concentration with imipenem was 2 µg/mL; in the assay with meropenem it was 2 µg/mL; in the assay with metronidazole, less than 0.125 µg/mL.

For “Clostridioides difficile PCR ribotype 015 isolate #307 (European region: West, country: France, isolate source: Animal, ribotype: 015)”, the minimum inhibitory concentration is 2 µg/mL with linezolid; 16 µg/mL with clindamycin; 0.015 µg/mL with fidaxomicin; less than 0.03 µg/mL with tigecycline; 0.5 µg/mL in the assay with vancomycin; less than 0.001 µg/mL with rifampicin. Also, the minimum inhibitory concentration was 2 µg/mL with imipenem, 4 µg/mL with meropenem and less than 0.125 µg/mL with metronidazole.

“Clostridioides difficile PCR ribotype 016 isolate #88 (European region: East, country: Poland, isolate source: Human, ribotype: 016)”: the minimum inhibitory concentration in the assay with linezolid is 2 µg/mL; with clindamycin, 8 µg/mL; with fidaxomicin, 0.03 µg/mL; with tigecycline, less than 0.03 µg/mL; in the assay with vancomycin, 0.5 µg/mL; in the assay with rifampicin, less than 0.001 µg/mL. Also, the minimum inhibitory concentration worked out at 4 µg/mL with imipenem, 4 µg/mL in the assay with meropenem and 8 µg/mL with metronidazole.

Turning to “Clostridioides difficile PCR ribotype 017 isolate #89 (European region: West, country: Netherlands, isolate source: Human, ribotype: 017)”, the minimum inhibitory concentration in the assay with linezolid is 2 µg/mL; with clindamycin it was 1 µg/mL; with fidaxomicin, 0.125 µg/mL; with tigecycline, less than 0.03 µg/mL; with vancomycin, 0.5 µg/mL; in the assay with rifampicin, less than 0.001 µg/mL. Also, the values for the minimum inhibitory concentration in the assay with imipenem, with meropenem and in the assay with metronidazole were 4 µg/mL, 2 µg/mL and less than 0.125 µg/mL, respectively.

Consider “Clostridioides difficile PCR ribotype 018 isolate #90 (European region: East, country: Romania, isolate source: Human, ribotype: 018)”, for which the minimum inhibitory concentration was less than 0.125 µg/mL with linezolid; 16 µg/mL with clindamycin; 0.008 µg/mL in the assay with fidaxomicin; less than 0.03 µg/mL with tigecycline; 1 µg/mL with vancomycin; less than 0.001 µg/mL with rifampicin. Moreover, the minimum inhibitory concentration was 1 µg/mL with imipenem, 2 µg/mL in the assay with meropenem and 0.25 µg/mL in the assay with metronidazole.

“Clostridioides difficile PCR ribotype 018 isolate #93 (European region: South, country: Italy, isolate source: Human, ribotype: 018)”: the minimum inhibitory concentration is 4 µg/mL with linezolid; 8 µg/mL with clindamycin; 0.004 µg/mL with fidaxomicin; less than 0.03 µg/mL in the assay with tigecycline; 0.5 µg/mL in the assay with vancomycin; more than 32 µg/mL with rifampicin. The minimum inhibitory concentration with imipenem was determined as 4 µg/mL; with meropenem, 4 µg/mL; in the assay with metronidazole it was 0.25 µg/mL.

Consider “Clostridioides difficile PCR ribotype 018 isolate #94 (European region: South, country: Italy, isolate source: Human, ribotype: 018)”, for which the minimum inhibitory concentration was 4 µg/mL in the assay with linezolid; 4 µg/mL with clindamycin; 0.008 µg/mL with fidaxomicin; less than 0.03 µg/mL in the assay with tigecycline; 0.5 µg/mL in the assay with vancomycin; 16 µg/mL with rifampicin. In addition, the minimum inhibitory concentration was 4 µg/mL with imipenem, 4 µg/mL with meropenem and less than 0.125 µg/mL with metronidazole.

For the test system “Clostridioides difficile PCR ribotype 020 isolate #95 (European region: North, country: Sweden, isolate source: Human, ribotype: 020)”, the minimum inhibitory concentration in the assay with linezolid was 2 µg/mL; in the assay with clindamycin it was 16 µg/mL; with fidaxomicin, 0.03 µg/mL; with tigecycline, less than 0.03 µg/mL; with vancomycin it was 1 µg/mL; with rifampicin, less than 0.001 µg/mL. Besides, the figures for the minimum inhibitory concentration with imipenem, in the assay with meropenem and in the assay with metronidazole were 2 µg/mL, 2 µg/mL and 0.25 µg/mL, respectively.
